Data from patent US11331327B2, “Antibacterial use of halogenated salicylanilides” (UNION therapeutics A/S, priority 2014, dated 2022).
Some results were stated once for a whole list of compounds, not compound by compound.

tested on: MRSA 01, MRSA 15, MRSA 16; experiment: Mutational frequency evaluation, Example 1; assay type: cell-based, Staphylococcus aureus; conditions: text summary of Table 4
Protocol: Adequate dilutions were plated on plates without the compound.
Viable cell growth was enumerated after 48 hours of incubation at 37° C.
Ten replicates were carried out for each strain and fusidic acid, mupirocin and retapamulin were used as controls for the MRSA 01 strain.

Row | SMILES | mutational frequency at MIC×1
1 | CC(=O)O[C@H]1C[C@@]2(C)[C@@H](C[C@@H](O)[C@H]3[C@@]4(C)CC[C@@H](O)[C@@H](C)[C@@H]4CC[C@@]32C)/C1=C(\CCC=C(C)C)C(=O)O [Fusidic acid] | ≥ 4×10^−5
2 | C/C(=C\C(=O)OCCCCCCCCC(=O)O)C[C@@H]1OC[C@H](C[C@@H]2O[C@H]2[C@@H](C)[C@H](C)O)[C@@H](O)[C@H]1O [Mupirocin] | ≥ 4×10^−5
3 | C=C[C@]1(C)C[C@@H](OC(=O)CS[C@@H]2C[C@H]3CC[C@@H](C2)N3C)[C@]2(C)[C@H](C)CC[C@]3(CCC(=O)[C@H]32)[C@@H](C)[C@@H]1O [Retapamulin] | ≥ 4×10^−5
